# Results from PubChem BioAssay AID758 (NMMLSC, 2007).
# Among all 190,000 compounds or so, about 110 (0.058%) were called active. Inconclusive results, whose numbers are uncertain, are shown with a selection of clear calls.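 Rule for the calls: active = fluorescent GTP binding to Rab7 beads changed by at least 20 points from the 100% baseline, either direction, mostly lower; inconclusive = compound itself probably fluorescent, or too few beads counted; inactive = the rest.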
# System: Rab7 GTPase wild type (dog), Bodipy-FL-GTP binding
# Test: modulators of GTP binding to Rab7, primary screen, biochemical, wildtype, multiplex bead flow cytometry (AID 758);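 note: median green fluorescence of bound Bodipy-FL-GTP per Rab7 bead population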
# Details: GST-Rab7 beads, fluorescent GTP binding, at 10 µM, actives lie on both sides, untreated = 100%, excess cold GTP = 0%
row,Compound,GTP binding activity (percent of control)
1,COc1cc(/C=N/Nc2nc(C)nc3c2cnn3-c2ccccc2)ccc1O,inactive: 95%
2,COc1ccccc1C(=O)N=Nc1c(O)[nH]c2ccc([N+](=O)[O-])cc12,active: 66%
3,CCCn1c(=N)n(CC(O)COc2cccc(C)c2)c2ccccc21 (stereo not given),inconclusive: 103%
4,O=C(O)CC/C(=N/Nc1ncc(C(F)(F)F)cc1Cl)C(=O)O,inactive: 105%
5,COc1ccccc1N(CC(=O)NC(C)(C)C)S(=O)(=O)c1cccs1,inactive: 97%
6,COc1cccc(NC(=O)c2ccc(C(=O)c3ccccc3)o2)c1,inactive: 95%
7,O=C(NC1CCN(C(=S)NCc2ccco2)CC1)c1ccc(F)cc1,inconclusive: 105%
8,CNc1nc(-c2ccc3c(c2)CCN3S(=O)(=O)c2ccccc2)c(C)s1,inactive: 105%
9,COc1ccc(-c2csc(NC(=O)c3ccccc3NS(=O)(=O)c3ccc(F)c(F)c3)n2)cc1,inconclusive: 89%
10,O=C(Nc1ccc(F)cc1)N1CCN(c2ccc3nnc(-c4ccc(F)cc4)n3n2)CC1,inconclusive: 90%
11,Cn1c(=O)c2c(nc(OCc3cccnc3)n2Cc2c(F)cccc2Cl)n(C)c1=O,inactive: 100%
12,O=C(Nc1ccc(Cl)cc1)c1csc(-c2ccncc2)n1,inconclusive: 96%
13,O=C(/C=C/c1c(Cl)nc2ccccn12)N1CCCCC1,inconclusive: 145%
14,Cc1ccc(OCCSc2ncnc3sc(C)c(C)c23)cc1C,inconclusive: 85%
15,COc1cc(NC(=O)c2cccs2)c(OC)cc1NC(=O)CCC(=O)Nc1cccc2ncccc12,inactive: 81%
16,CN1/C(=C/C2CC(=O)N(c3ccc([N+](=O)[O-])cc3)C2=O)C(C)(C)c2ccccc21 (stereo not given),inconclusive: 90%
17,COc1ccc2c(c1)CCC/C2=N\OC(=O)c1ccccc1F,inactive: 105%
18,Cc1cccc(-n2c(Cc3ccccc3)n[nH]c2=S)c1,inconclusive: 92%
19,COCCNC(=O)Cn1cnc2ccc(S(=O)(=O)N3CCC(C)CC3)cc2c1=O,inconclusive: 102%
20,CCC(/C=N/NC(=O)CCCCC(=O)N/N=C/C(CC)CC)CC,inactive: 107%
21,c1ccc(CCC2CCCCN2Cc2cn[nH]c2-c2cc3ccccc3o2)nc1 (stereo not given),inactive: 105%
22,CCn1nc(C(=O)OCC(=O)c2cc(C)n(Cc3cccs3)c2C)c2ccccc2c1=O,inactive: 82%
23,Cc1ccc(C(=O)N2CCOCC2)cc1Cl,inconclusive: 91%
24,CS(=O)(=O)N(CC(=O)Nc1c(F)cccc1F)c1ccc(C23CC4CC(CC(C4)C2)C3)cc1,inconclusive: 107%
25,COc1ccc(OC)c(C2=NOC(C(=O)NCc3cccs3)C2)c1 (stereo not given),inactive: 101%

# Rewritten with bars between the fields: part of the list above
row | Compound | GTP binding activity (percent of control)
18 | Cc1cccc(-n2c(Cc3ccccc3)n[nH]c2=S)c1 | inconclusive: 92%
19 | COCCNC(=O)Cn1cnc2ccc(S(=O)(=O)N3CCC(C)CC3)cc2c1=O | inconclusive: 102%
